Data reported in patent US11911228B2, “Aqueous solution for use in cleaning via irradiation by ultraviolet rays and/or near-ultraviolet visible light and/or light in 800-900 nm near-infrared region, dentifrice including said solution, dental treatment device, toothbrush, and tooth cleaning method” (Luke Co., Ltd., priority 2016, dated 2024).
Read-outs that look alike come from different tables or passages of the source.

OO [hydrogen peroxide]
generation of hydroxyl radical (0.1 M, 805 nm infrared ray): generation of the hydroxyl radical was observed | generation of hydroxyl radical (1M, 805 nm infrared ray): clearly generated | irradiation time for generating 10 μM of hydroxyl radical (805 nm infrared ray): ≥ 25 s | rate of hydroxyl radical increase after photoirradiation (805 nm infrared ray, linear increase): 2 μM per 10 seconds | hydroxyl radical contained before photoirradiation (before 805 nm photoirradiation): 5 µM
